Experimental data from PMC8080067, “Tight binding of cytochrome b5 to cytochrome P450 17A1 is a critical feature of stimulation of C21 steroid lyase activity and androgen synthesis” (The Journal of Biological Chemistry, 2021).

The chains behind the UniProt entries cited, without tags or fusion partners. Where a name states a change or a piece, a line headed by the entry shows the natural chain unless it says otherwise.
UniProt P00388: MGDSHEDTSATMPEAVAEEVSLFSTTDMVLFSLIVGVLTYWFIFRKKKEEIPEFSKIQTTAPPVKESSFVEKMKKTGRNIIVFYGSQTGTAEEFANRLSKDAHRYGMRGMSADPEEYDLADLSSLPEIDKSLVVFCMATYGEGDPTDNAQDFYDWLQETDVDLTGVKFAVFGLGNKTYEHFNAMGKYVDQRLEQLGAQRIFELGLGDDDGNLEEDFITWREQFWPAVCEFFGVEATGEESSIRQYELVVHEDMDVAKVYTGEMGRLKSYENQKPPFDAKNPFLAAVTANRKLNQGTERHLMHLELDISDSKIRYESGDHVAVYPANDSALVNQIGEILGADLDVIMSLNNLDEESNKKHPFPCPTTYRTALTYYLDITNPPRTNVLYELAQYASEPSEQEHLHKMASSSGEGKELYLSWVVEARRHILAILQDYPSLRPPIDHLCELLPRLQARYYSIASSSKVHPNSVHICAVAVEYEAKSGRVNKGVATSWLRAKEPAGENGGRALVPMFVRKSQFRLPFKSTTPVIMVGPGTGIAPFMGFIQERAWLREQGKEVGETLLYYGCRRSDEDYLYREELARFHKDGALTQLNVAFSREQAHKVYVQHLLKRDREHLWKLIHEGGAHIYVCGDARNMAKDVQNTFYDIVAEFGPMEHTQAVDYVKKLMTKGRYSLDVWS

Target: T1, WT P450 17A1 (human, UniProt P05093 1-508)
T1 construct: cytochrome P450 17A1, human; approximate Mr 57 kDa; also called cytochrome P450 17A1; CYP17A1; source: E. coli JM109 (pCW vector), purified (Ni2+-NTA)
T1 sequence (looked up): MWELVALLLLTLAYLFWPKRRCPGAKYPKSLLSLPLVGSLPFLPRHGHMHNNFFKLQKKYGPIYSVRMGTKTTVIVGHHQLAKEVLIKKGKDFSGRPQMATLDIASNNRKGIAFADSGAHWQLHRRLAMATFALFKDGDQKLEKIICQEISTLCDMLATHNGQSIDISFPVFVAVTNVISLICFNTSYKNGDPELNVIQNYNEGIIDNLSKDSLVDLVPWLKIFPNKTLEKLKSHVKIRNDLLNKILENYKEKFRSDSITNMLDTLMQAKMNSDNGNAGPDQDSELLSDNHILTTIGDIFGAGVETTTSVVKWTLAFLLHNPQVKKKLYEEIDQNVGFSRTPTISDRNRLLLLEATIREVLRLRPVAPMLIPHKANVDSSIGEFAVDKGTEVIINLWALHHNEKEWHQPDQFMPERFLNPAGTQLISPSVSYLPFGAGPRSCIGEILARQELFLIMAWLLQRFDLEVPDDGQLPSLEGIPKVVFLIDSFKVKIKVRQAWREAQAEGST
Test: SEC; ternary equimolar (1:1:1) mixture of POR, P450 17A1 and b5 on Superose 12 10/300 GL, 50 mM potassium phosphate pH 7.4, […] NaCl; fractions analysed by SDS gel and densitometry; both purified

binding: binds
Substance: NADPH–P450 reductase (from UniProt P00388) (enzyme)

Results are given in words; binding and its absence hold for the method and conditions named. Binding calls can cover weak binding; strength is not graded here.
